Measured values as given in PubChem BioAssay AID540276 (National Center for Advancing Translational Sciences (NCATS), 2011).
Out of some 300,000 compounds screened, about 5,400 (1.8%) were called active. The shares of active, inactive and inconclusive entries below differ from those in the screen. The call rests on the fitted dose curve; tested in HEK293 cells. A potency beside an inconclusive call is a rough fit, not a confirmed value.
On the % scale 0 is the no-effect control and ±100 the full control effect; potency means the concentration at half of the fitted maximal effect.

Test: qHTS for inhibitors of binding or entry into cells for Marburg Virus
Conditions: Marburg virus pseudotyped entry inhibition, cell reporter; activity change, negative = inhibition: at 37.8 µM (top of the series) unless noted
For C=Cc1cccc(NC(=O)COc2ccccc2)c1, the “activity change, negative = inhibition” value was inactive: 17.5%. For C/C(=N/NS(=O)(=O)c1ccc(Cl)cc1)c1cccc(NC(=O)c2ccc(Cl)cc2Cl)c1, the Potency was inconclusive: 0.708 µM [activator, full curve, poor fit]. In the case of Fc1ccc(NCc2nnc(SCc3nnc(-c4ccccc4)o3)n2Cc2ccccc2)cc1, the Potency is reported as “inactive”. For O=C(CN(Cc1ccccc1)S(=O)(=O)c1ccc(Br)cc1)NCC1CCCO1 (stereo not drawn), the “activity change, negative = inhibition” value was inactive: -25.8% [at 46.1 µM]. In the case of Cc1ccc(C)n1Cc1ccccc1Cl, the “activity change, negative = inhibition” value is reported as inactive: 26.6% [at 46.1 µM]. With O=C1NC(=O)C(CCc2ccncc2)(CCc2ccccn2)C(=O)N1c1ccc(Br)cc1 (stereo not drawn) the “activity change, negative = inhibition” value was inactive: 1.98% [at 46.1 µM]. For Clc1ccc(CN2CCC(CNc3ncnc4onc(-c5ccc(Cl)cc5)c34)CC2)cc1, the Potency was inconclusive: 1 µM [inhibitor, full curve]. For CC(C)(C)c1ccc(COn2c(=O)c(-c3ccco3)[n+]([O-])c3ccccc32)cc1, the Potency was inconclusive: 29.1 µM [inhibitor, single point]. In the case of Oc1ccc(/C=N/N2CCCCC2)cc1O, the “activity change, negative = inhibition” value is reported as inactive: 20% [at 46.1 µM]. With Cc1cc(C)n2nc(SCC3COc4ccccc4O3)nc2n1 (stereo not drawn) the Potency was inconclusive: 5.8 µM [activator, partial curve, poor fit]. In the case of COc1ccc(-c2cc(C(F)(F)F)n3ncc(C(=O)NCc4ccco4)c3n2)cc1, the “activity change, negative = inhibition” value is reported as inactive: 8.42%. For CN1CCN(C(=O)c2ccccc2NC(=O)C(C)(C)C)CC1, the “activity change, negative = inhibition” value was inactive: -19.7%. For Cc1ccccc1N1CCN(CCCCN2C(=O)C3CCCN3C2=O)CC1 (stereo not drawn), the Potency was inconclusive: 0.708 µM [activator, full curve, poor fit]. For COc1cccc(C(=O)NC(=O)Nc2cc(C)[nH]n2)c1, the Potency was inconclusive: 3.16 µM [activator, single point]. In the case of O=C(c1ccccc1)c1ccc2nc(-c3ccco3)c(-c3ccco3)nc2c1, the “activity change, negative = inhibition” value is reported as inactive: -22.8% [at 46.1 µM]. For C=CCN1C(=O)c2cccc3c(N4CCCCC4)ccc(c23)C1=O, the Potency was inconclusive: 2.51 µM [activator, full curve, poor fit]. In the case of O=C(/C=C/c1ccco1)NC(=S)Nc1cccc([N+](=O)[O-])c1, the Potency is reported as inconclusive: 1.41 µM [inhibitor, full curve, poor fit]. In the case of O=S(=O)(NC1c2cccc3cccc(c23)C1Sc1ncccn1)c1ccc(Cl)cc1 (stereo not drawn), the Potency is reported as inconclusive: 11.2 µM [inhibitor, single point]. With O=C(NCCCCCCNC(=O)c1ccccc1O)c1ccccc1O the Potency was inconclusive: 10 µM [inhibitor, partial curve, poor fit]. In the case of CN(C)C(CNc1nnnn1-c1ccccc1)c1ccco1 (stereo not drawn), the Potency is reported as inconclusive: 1.83 µM [inhibitor, partial curve]. With COc1ccc(C(C(=O)NC2CCCCC2)N(C(=O)c2sc(C)nc2C)c2ccc(OC)cc2)cc1 (stereo not drawn) the Potency was inconclusive: 25.9 µM [inhibitor, partial curve, poor fit]. With CCOC(=O)Cc1csc(NC(=O)c2cccc(N3C(=O)CCC3=O)c2)n1 the “activity change, negative = inhibition” value was inactive: 0.38%. For COC(=O)c1c(C(=O)OC)c(-c2cccc(Cl)c2)n2c1CS(=O)C2 (stereo not drawn), the Potency was inconclusive: 3.98 µM [activator, partial curve, poor fit]. For COc1cccc(C(=O)CSc2nnnn2C2CCCCC2)c1, the “activity change, negative = inhibition” value was inactive: 23.4%. For Cc1ccc(NC(=O)c2c(Cl)n(C)c3ccccc23)cc1, the Potency was inconclusive: 35.5 µM [inhibitor, single point]. In the case of Cc1ccc(S(=O)(=O)N2CCCCC2)cc1NS(=O)(=O)c1cccc(C(=O)O)c1, the Potency is reported as inconclusive: 2.51 µM [inhibitor, partial curve, poor fit]. For CCOC(=O)C1CCCN(C(=O)c2cc3c(=O)n4ccccc4nc3s2)C1 (stereo not drawn), the Potency was inconclusive: 12.6 µM [activator, single point]. With O=C1OCCC1Sc1nnc(-c2ccc(Br)cc2)o1 (stereo not drawn) the Potency was inconclusive: 35.5 µM [inhibitor, single point]. In the case of c1ccc(CCNc2nc3ccccc3s2)cc1, the Potency is reported as inconclusive: 32.6 µM [inhibitor, single point]. For COc1cc(/C=C/C(=O)OCC(=O)Nc2cc(S(=O)(=O)N3CCOCC3)ccc2Cl)cc(OC)c1OC, the Potency was inconclusive: 6.31 µM [inhibitor, full curve, poor fit]. In the case of COC(=O)CN(c1cccc(F)c1)S(C)(=O)=O, the Potency is reported as inconclusive: 35.5 µM [activator, single point]. In the case of COCCNC(=O)c1cccc(OC2CCN(Cc3ccc(C(=O)OC)cc3)CC2)c1, the Potency is reported as inconclusive: 10 µM [inhibitor, partial curve]. In the case of CCOc1ccc2nc(SCC(=O)Nc3cccc(S(=O)(=O)NC4=NCCCCC4)c3)[nH]c2c1, the Potency is reported as inconclusive: 35.5 µM [inhibitor, single point]. For O=C(c1ccc2c(c1)N(Cc1ccccc1F)C(=O)c1ccccc1S2(=O)=O)N1CCN(c2ccccc2F)CC1, the Potency was inconclusive: 35.5 µM [inhibitor, single point]. For C=CCn1c(SCC(=O)c2ccc(CNC(C)=O)o2)nc2ccccc2c1=O, the “activity change, negative = inhibition” value was inactive: -19.8%. In the case of CC(C)(C)c1ccc(C(=O)NCc2cccnc2)cc1, the “activity change, negative = inhibition” value is reported as inactive: 25.6%. With Cn1c(C(=O)N2CCCC(C(=O)NCCc3ccccc3)C2)cc2sccc21 (stereo not drawn) the Potency was inconclusive: 9.2 µM [inhibitor, partial curve, poor fit]. With Cc1ccc2cccc(NC(=S)NC(=O)c3ccnn3C)c2n1 the Potency was inconclusive: 0.058 µM [activator, full curve, poor fit]. In the case of COc1ccc(-n2c(C)cc(C(=O)CN3C(=O)NC4(CCCc5sccc54)C3=O)c2C)cc1 (stereo not drawn), the Potency is reported as inconclusive: 29.1 µM [inhibitor, single point]. In the case of COCCCn1c(-c2ccco2)nc2ccccc2c1=O, the “activity change, negative = inhibition” value is reported as inactive: 12.5%. For O=C(OC1CCOC1=O)c1ccc(-c2nc3ccccc3s2)s1 (stereo not drawn), the Potency was inconclusive: 2 µM [inhibitor, full curve, poor fit]. With Cn1c(NCC(O)c2ccccc2)nc2c1c(=O)n(Cc1ccc(Cl)c(Cl)c1)c(=O)n2C (stereo not drawn) the Potency was inconclusive: 8.91 µM [inhibitor, partial curve, poor fit]. For COc1ccc(-c2cc(C(=O)NCCCN3CCOCC3)on2)cc1OC, the Potency was inconclusive: 14.1 µM [activator, partial curve, poor fit].
